This is one part of the list. Small differences around the control level are noise.

Protein sequences, listed by entry. Tags and fused reporters are not part of them. Lines headed by an entry give the natural chain unless they say otherwise; changes in a name come on top.
UniProt Q80XP8: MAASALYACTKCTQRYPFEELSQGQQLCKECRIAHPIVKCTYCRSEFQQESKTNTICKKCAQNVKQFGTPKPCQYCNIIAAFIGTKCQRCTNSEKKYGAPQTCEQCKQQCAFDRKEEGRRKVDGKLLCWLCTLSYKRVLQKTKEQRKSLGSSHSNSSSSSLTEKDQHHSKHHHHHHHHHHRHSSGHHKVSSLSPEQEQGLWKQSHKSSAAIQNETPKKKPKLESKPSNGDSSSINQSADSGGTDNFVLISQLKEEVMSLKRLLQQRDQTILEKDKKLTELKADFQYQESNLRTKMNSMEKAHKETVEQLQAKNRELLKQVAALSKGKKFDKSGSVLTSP
UniProt Q6P5H2: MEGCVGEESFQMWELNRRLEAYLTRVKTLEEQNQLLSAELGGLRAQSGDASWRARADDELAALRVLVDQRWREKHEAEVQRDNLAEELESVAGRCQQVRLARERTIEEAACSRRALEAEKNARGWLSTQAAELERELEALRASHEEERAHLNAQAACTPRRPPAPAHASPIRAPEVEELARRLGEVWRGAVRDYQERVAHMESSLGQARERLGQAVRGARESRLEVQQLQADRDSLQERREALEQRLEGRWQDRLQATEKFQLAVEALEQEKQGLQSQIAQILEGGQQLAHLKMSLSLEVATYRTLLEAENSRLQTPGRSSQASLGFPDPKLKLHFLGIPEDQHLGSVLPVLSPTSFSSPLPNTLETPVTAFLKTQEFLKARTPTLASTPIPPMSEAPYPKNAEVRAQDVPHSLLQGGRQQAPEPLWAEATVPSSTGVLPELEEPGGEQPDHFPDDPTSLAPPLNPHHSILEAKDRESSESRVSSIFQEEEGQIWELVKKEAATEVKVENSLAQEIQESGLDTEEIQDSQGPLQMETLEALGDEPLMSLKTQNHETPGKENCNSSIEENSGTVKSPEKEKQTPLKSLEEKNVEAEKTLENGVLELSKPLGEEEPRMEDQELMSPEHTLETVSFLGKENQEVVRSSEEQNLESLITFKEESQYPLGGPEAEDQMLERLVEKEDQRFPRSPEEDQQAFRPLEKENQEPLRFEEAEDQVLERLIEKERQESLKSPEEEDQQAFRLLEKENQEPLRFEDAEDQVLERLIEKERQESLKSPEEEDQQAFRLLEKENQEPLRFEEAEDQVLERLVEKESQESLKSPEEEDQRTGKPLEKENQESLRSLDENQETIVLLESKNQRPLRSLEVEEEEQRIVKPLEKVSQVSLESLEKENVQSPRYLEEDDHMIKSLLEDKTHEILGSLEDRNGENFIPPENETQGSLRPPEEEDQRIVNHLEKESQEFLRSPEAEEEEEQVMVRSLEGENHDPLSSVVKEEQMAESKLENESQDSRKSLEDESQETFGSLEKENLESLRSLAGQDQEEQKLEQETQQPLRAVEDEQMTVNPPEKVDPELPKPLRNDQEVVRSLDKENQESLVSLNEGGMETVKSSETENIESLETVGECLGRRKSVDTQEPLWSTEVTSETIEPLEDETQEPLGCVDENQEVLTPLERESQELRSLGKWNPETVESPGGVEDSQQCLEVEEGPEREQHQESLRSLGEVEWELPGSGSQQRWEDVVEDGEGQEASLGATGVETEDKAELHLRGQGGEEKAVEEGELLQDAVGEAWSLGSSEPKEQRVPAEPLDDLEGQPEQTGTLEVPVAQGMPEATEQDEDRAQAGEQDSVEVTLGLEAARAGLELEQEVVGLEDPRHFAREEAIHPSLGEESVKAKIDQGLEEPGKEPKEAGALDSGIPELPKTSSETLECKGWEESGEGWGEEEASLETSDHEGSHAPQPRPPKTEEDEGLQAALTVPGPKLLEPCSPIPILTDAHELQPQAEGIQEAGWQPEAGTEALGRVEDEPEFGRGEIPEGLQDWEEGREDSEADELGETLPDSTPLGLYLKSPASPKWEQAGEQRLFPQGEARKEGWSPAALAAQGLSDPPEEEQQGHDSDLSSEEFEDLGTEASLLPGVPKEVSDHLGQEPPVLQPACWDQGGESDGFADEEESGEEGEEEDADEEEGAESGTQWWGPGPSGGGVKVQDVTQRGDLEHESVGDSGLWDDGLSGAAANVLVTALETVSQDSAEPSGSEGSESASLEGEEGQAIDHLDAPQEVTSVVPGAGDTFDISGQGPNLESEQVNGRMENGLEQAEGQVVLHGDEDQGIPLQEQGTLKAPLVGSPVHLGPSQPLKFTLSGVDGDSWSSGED
UniProt Q791V5: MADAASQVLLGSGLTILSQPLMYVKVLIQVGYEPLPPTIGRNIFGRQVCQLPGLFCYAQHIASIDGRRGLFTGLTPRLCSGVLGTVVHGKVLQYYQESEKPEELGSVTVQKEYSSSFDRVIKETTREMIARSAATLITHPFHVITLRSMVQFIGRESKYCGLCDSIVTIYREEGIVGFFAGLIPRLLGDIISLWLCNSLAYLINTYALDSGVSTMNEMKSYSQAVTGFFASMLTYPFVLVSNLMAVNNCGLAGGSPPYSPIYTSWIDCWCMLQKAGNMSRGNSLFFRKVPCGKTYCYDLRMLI
UniProt Q6PB93: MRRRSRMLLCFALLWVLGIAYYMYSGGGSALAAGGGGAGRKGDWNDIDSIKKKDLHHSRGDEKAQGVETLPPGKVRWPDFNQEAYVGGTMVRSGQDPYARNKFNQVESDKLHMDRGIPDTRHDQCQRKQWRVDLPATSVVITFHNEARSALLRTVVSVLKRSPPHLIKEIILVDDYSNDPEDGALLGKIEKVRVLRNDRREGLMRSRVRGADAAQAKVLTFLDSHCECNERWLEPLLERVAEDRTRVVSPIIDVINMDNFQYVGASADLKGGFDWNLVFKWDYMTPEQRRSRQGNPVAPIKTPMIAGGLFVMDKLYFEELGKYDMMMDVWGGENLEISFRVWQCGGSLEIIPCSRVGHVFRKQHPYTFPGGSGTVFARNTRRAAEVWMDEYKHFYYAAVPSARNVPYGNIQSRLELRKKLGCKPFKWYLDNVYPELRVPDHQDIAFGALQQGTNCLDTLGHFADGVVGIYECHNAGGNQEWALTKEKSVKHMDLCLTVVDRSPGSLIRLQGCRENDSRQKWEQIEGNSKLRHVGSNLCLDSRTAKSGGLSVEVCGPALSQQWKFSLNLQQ
UniProt Q76M72: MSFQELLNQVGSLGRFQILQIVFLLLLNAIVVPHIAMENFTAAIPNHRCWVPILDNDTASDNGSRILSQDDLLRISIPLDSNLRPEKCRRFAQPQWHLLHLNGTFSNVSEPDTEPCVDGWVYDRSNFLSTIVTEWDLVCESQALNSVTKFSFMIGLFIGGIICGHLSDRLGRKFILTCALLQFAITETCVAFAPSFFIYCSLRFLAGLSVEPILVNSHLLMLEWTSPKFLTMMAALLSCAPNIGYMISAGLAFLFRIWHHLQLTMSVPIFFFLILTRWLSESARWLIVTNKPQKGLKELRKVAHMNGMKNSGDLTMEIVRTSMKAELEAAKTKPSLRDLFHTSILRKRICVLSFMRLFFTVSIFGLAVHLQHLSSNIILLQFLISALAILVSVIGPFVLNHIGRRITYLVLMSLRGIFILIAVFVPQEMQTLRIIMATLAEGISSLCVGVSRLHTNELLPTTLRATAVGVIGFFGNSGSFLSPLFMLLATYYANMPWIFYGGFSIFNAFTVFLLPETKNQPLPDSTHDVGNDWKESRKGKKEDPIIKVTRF
UniProt Q7TMS5: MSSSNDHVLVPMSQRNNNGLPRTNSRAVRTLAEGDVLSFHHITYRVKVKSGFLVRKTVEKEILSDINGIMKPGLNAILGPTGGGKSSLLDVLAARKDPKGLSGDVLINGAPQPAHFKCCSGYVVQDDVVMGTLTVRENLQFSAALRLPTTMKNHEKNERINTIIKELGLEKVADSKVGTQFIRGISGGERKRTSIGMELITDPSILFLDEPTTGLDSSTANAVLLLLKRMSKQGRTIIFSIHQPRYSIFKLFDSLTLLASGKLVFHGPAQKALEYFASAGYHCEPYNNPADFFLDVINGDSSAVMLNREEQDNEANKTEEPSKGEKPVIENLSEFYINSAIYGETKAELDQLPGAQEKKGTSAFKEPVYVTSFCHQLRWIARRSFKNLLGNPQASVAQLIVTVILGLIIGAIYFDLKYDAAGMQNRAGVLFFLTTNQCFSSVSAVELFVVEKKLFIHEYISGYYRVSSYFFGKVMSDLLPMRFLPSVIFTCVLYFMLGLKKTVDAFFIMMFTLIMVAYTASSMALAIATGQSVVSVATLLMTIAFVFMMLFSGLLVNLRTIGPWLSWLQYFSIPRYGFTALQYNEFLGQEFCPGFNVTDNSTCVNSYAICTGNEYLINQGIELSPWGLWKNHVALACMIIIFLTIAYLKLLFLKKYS
UniProt Q6P5G6: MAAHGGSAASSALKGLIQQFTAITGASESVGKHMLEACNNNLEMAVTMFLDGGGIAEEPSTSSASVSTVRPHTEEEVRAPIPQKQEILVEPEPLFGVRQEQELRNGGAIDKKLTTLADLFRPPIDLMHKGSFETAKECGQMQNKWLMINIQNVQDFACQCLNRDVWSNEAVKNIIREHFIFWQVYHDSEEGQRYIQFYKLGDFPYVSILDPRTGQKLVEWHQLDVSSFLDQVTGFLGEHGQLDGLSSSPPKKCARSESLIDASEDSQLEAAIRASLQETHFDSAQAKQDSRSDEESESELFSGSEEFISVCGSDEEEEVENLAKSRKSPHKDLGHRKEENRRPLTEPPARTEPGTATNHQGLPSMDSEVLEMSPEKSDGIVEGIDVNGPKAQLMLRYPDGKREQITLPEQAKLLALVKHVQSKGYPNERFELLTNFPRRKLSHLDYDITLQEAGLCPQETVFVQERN
UniProt Q8BG73: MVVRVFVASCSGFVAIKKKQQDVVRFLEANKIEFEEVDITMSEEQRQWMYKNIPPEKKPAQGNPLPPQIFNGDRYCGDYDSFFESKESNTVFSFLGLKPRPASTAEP
UniProt Q7M6Y3: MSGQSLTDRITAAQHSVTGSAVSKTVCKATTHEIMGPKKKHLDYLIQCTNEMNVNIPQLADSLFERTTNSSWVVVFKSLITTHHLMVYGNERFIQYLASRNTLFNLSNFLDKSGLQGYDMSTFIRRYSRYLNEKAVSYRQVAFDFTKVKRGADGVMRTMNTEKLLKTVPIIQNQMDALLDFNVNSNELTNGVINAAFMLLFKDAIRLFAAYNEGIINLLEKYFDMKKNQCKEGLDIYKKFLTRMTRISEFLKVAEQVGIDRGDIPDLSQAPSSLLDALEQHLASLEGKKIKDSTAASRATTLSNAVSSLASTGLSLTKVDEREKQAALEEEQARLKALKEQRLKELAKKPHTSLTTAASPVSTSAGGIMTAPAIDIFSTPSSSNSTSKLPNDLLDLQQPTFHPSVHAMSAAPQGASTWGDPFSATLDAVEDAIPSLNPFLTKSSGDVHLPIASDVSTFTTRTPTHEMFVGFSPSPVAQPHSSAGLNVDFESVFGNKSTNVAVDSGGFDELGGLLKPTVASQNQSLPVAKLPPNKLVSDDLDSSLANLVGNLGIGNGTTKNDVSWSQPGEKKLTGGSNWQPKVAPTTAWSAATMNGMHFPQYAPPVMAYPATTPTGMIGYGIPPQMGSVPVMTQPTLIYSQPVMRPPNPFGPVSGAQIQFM
UniProt Q6ZQ58, whole entry: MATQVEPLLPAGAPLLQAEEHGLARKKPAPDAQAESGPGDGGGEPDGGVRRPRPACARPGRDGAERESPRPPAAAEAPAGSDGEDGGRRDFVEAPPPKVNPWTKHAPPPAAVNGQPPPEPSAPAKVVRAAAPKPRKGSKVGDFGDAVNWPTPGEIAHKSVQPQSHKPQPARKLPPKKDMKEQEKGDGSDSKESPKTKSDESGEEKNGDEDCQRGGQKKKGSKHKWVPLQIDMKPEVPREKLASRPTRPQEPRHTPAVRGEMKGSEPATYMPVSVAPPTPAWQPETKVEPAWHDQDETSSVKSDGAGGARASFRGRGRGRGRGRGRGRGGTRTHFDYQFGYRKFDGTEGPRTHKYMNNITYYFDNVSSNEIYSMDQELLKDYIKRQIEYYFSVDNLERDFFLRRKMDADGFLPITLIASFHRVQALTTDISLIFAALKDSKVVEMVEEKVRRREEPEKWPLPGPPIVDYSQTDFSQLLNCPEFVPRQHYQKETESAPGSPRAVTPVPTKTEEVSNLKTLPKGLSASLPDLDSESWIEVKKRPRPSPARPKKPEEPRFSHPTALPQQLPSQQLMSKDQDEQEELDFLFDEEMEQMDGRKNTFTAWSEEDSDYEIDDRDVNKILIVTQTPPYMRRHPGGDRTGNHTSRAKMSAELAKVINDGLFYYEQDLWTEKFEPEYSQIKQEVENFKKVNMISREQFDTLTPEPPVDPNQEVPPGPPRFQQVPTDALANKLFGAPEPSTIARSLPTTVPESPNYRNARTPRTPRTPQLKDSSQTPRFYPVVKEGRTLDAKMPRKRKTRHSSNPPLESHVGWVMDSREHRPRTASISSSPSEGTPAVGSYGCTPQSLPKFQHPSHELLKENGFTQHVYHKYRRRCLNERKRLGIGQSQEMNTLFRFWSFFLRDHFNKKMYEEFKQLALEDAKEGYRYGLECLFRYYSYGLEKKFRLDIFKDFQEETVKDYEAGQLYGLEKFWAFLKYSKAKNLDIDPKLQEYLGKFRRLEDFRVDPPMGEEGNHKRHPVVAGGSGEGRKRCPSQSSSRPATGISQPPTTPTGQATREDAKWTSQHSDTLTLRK

Compound in the experiment: CN[C@@H]1C[C@H]2O[C@@](C)([C@@H]1OC)n1c3ccccc3c3c4c(c5c6ccccc6n2c5c31)C(=O)NC4 [staurosporine]
Nature of the experiment: log2 fold change of pooled soluble protein (PISA), ligand vs vehicle (log2 ratio); higher = more thermally stabilized. The following applies: ligand concentration: 20 uM; assay format: PISA pool 52.9/55.5/58.6 C.
In the case of UniProt Q80XP8, the “log2 fold change of pooled soluble protein” value (“log2 fold change” below) stood at 0.103.

In the case of UniProt Q8BGR9, the “log2 fold change” value was 0.0772. For UniProt Q78JE5 the value was 0.0736; for UniProt Q80VQ0, 0.0929; for UniProt Q7TN29, 0.136. The figure for UniProt Q8BFZ9 is 0.179; for UniProt Q80U58 it is 0.158; for UniProt Q6P5H2 it is -0.0569. UniProt Q71FD5: the “log2 fold change” value was determined as 0.174. For UniProt Q6ZPZ3 the value was -0.0349; for UniProt Q791V5, 0.0164.

Regarding UniProt Q7TNE3, the “log2 fold change” value was 0.147. The figure for UniProt Q6ZQ93 is 0.229; for UniProt Q6PB93 it is 0.171. The figure for UniProt Q8BGC4 is 0.0613. UniProt Q76M72: the “log2 fold change” value was determined as 0.0749.

For UniProt Q80W54, the “log2 fold change” value was 0.0352.

In the case of UniProt Q80WQ2, the “log2 fold change” value was -0.0184. The figure for UniProt Q80T85 is 0.126; for UniProt Q7TMS5 it is 0.0747. The figure for UniProt Q6P5G6 is -0.141. Turning to UniProt Q8BG51, the “log2 fold change” value amounted to 0.0576. On to UniProt Q811J3, for which the “log2 fold change” value was -0.757. For UniProt Q6PIE5 the value was -0.146. Regarding UniProt Q8BGI5, the “log2 fold change” value is 0.477. For UniProt Q7TPV4 the value was -0.0166; for UniProt Q7TSV4, 0.0417; for UniProt Q7TMK9, 0.067. With UniProt Q8BG73, the “log2 fold change” value was -0.017. For UniProt Q7M6Y3 the value was -0.0485; for UniProt Q6PIC6, -0.00774. The figure for UniProt Q80X50 is -0.0296. For UniProt Q6ZQ58 the value was -0.219; for UniProt Q6WVG3, 0.173. Take UniProt Q80ZU5: the “log2 fold change” value was -0.0417.
